Most values lie at the floor of the assay. Slopes are relative: functional sequences can read slightly below zero.
test system: Saccharomyces cerevisiae PS128 hsf1 delta, HSF1(1-493) fusion; experiment: growth estimate (transactivation domain function in HSF1 fusion, heat-shock survival) (a.u. (slope of normalised read count over time)); higher = stronger growth at 37°C, i.e. more transactivation activity; details: library: random library

Substance | growth estimate
GATLLF | < -0.25
GIYVLKART | < -0.25
GRGLRVYNWAGSIFGFRLAV | < -0.25
FPWLPAWMPIGRHRSP | < -0.25
QHEHDIWPNGNIGSLNPAIL | < -0.25
RYLV | < -0.25
TPKVHRPALWDVSKIGLASM | < -0.25
RFRAVRANASGEPWQGRT | < -0.25
NDAGKPTERASGAIHAQLPT | < -0.25
LASWNCVEF | < -0.25
VGPR | < -0.25
FRT | < -0.25
SSLDSANTHSI | < -0.25
QGVIGF | < -0.25
LNSVIVRWWGNSVGSGDNDG | < -0.25
QGWCRARICGPHPLGSRDSV | < -0.25
KTRVCRCGRGPPSGTGMLTV | < -0.25
NGVPGRKVNCFRLRMSIPHV | < -0.25
FWMFEAVAKETASFWRYLRA | < -0.25
QSACLVVIDGLACELSPPSR | < -0.25
LPHAALPVSWGFLMLADRQS | < -0.25
LVVPFCAGEVYTQYRQLLHT | < -0.25
MLI | < -0.25
PESP | < -0.25
AGPPRGGAEWLVLCENNQQG | < -0.25
PRALVRQPCAS | < -0.25

Substance | growth estimate
IDLLMNCKLPGPLPLAPRRR | < -0.25
FSIIAVC | < -0.25
PPPQREREDKERVFEATAAA | < -0.25
LLWDTGEGTHCHGKVTGLSS | < -0.25
FLGETQIET | < -0.25
KRKSMSIWQDY | < -0.25
WAELDG | < -0.25
LSVTAHSDASSSSR | < -0.25
TSVGRILSLRTALSYPSRAK | < -0.25
HPMRRIIR | < -0.25
VVIHQGTDLTRFTTNNEAPD | < -0.25
DRGRARARPEPKARPSAERK | < -0.25
WKYSASTSMLVHTGPSDRMV | < -0.25
RSFSSRRNSMSETRCHLPLT | < -0.25
AGVR | < -0.25
WQTVTPRHVFTAVRHMYSR | < -0.25
GVIELCYEVRIQ | < -0.25
GCGGGCRI | < -0.25
QTFLNGYDRYTYSRGRILPV | < -0.25
GKEC | < -0.25
SGLCTLRFRQSLFIYRG | < -0.25
RNI | < -0.25
GACC | < -0.25
PGRATGDNPTHRITCFGESP | < -0.25
YREGELHDQACYRYQVWTIT | < -0.25
RSTSACTRMEPAIVHTYYCA | < -0.25

In another format: results already given.
Substance,growth estimate
GVIELCYEVRIQ,< -0.25
GCGGGCRI,< -0.25

The listing continues.

Substance | growth estimate
DML | < -0.25
HYCRIVKASVVIARG | < -0.25
RCEITGIHAIFYVRRSGRCL | < -0.25
MDYLI | < -0.25
EPYA | < -0.25
RLSPIVHV | < -0.25
LSKSR | < -0.253
HKPPITLPRRRRVITGFKVH | < -0.25
HEAFSERVHGY | < -0.25
RAGTRHEKALLSDGQRPRST | < -0.25
QIGLTYLCVFGGGSLV | < -0.25
GVKFASQDIL | < -0.25
QMDPVR | < -0.25
QRFRFCTGLHCG | < -0.25
RSPYTEGGSTSDLRARANLD | < -0.25
SAASY | < -0.25
VVLYYSLGFGN | < -0.25
PCGRLNPAMLHDRSQRA | < -0.25
SLTDPA | < -0.25
GRT | < -0.25
HPVVG | < -0.25
GLSATRADISIRLARTDWVT | < -0.25
TKRGSFIDHLLGAINR | < -0.25
LRGSRRRFDIPVFTPGKWFV | < -0.25
TVC | < -0.25
GSILQRAVIGYSIRVESRSI | < -0.25

Quoted at random: 6 records from the list, in no set order.
Substance | growth estimate
TSVGRILSLRTALSYPSRAK | < -0.25
PRALVRQPCAS | < -0.25
QGVIGF | < -0.25
FPWLPAWMPIGRHRSP | < -0.25
RNI | < -0.25
SSLDSANTHSI | < -0.25

The list goes on:

Substance | growth estimate
KGRPIFSSTLFSCAAH | < -0.25
NDEVSSKFVIGCSMIDPSLP | < -0.25
AGYAAKVLRIDWWGREVIRG | < -0.25
IIRSCARGGLAEGVTPQSIS | < -0.25
THCFVWGHAKLRPILGRPHS | < -0.25
CKNCIHTSRASALW | < -0.25
GLSPL | < -0.25
SIHEGRLGEH | < -0.25
LTFYSSDCDSLVGKPECLSK | < -0.25
EPLPE | < -0.25
LDRATELYPCHSGIREARIP | < -0.25
SEVPILKNRTAISPAGYPPT | < -0.25
DGSRHRPLCRGKSPE | < -0.25
IMRQLRLDALNVGVFGVSLP | < -0.25
KLRLGERRSAEASVKGWRPA | < -0.25
LRRLW | < -0.25
SGF | < -0.25
KFGIRLDP | < -0.25
CRCSFGVDRGKSTV | < -0.25
RKRSF | < -0.25
LCVLCTHGCTPPLV | -0.25
RRSSTMEA | -0.243
YTPGVLGTRVIRGLGCGVVD | < -0.25

Reference: the supplement of paper PMC5949888
